Laboratory results reported in PubChem BioAssay AID1273 (Columbia University Molecular Screening Center, 2008).
This is one part of the list. These are further read-outs of the screen, such as a control signal, another cell line or another target. No call is given for them. The list favours compounds with an active or inconclusive main result.

Experiment: inhibitors of insulin promoter-driven GFP, primary screen, imaging, TRM-6 cells (human fetal islet line), eGFP reporter, cell count (AID 1273;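 note: cells exposed to compound for 48 h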)
Details: measured here: cell count, toxicity, at 2 µM, reporter expression induced with tamoxifen
Compound `COc1cccc(OC)c1C(=O)Nc1cc(C)nn1-c1nc2ccccc2[nH]1` has a normalized cell count of 106%.
For `O=C(Nn1c(-c2ccc(Br)cc2)nc2ccccc2c1=O)c1cccnc1`, the normalized cell count was 85%.
Compound `CCOc1ccc(N(Cc2ccccc2F)C2=NC3CS(=O)(=O)CC3S2)cc1` (configuration not stated) has a normalized cell count of 57.1%.
Compound `COc1ccc(CNC(=O)C2(c3ccc(Cl)cc3)CC2)cc1` has a normalized cell count of 99.4%.
`CC(C(=O)Nc1cc([N+](=O)[O-])ccc1Cl)N1CCN(c2ccc(O)cc2)CC1` (configuration not stated) showed a normalized cell count of 127%.
`Clc1ccc(OCCSc2ncccn2)cc1` showed a normalized cell count of 115%.
With `CCCCn1c(N)c(NCCC(C)C)c(=O)[nH]c1=O` the normalized cell count was 83.7%.
With `CN(C)c1cccc(C(=O)OCC(=O)Nc2ccccc2Cl)c1` the normalized cell count was 164%.
In the case of `CCOC(=O)c1c(C)nc(-c2ccccc2)nc1NC(=O)CC`, the normalized cell count is reported as 75.9%.
With `Cc1ccccc1NC(=S)c1nc2ccccc2[nH]1` the normalized cell count was 86.7%.
In the case of `O=C(NCc1ccco1)c1cc2ccccc2c(=O)o1`, the normalized cell count is reported as 71%.
In the case of `O=C(CN1CCN(Cc2ccccc2F)C1=O)NC1CCCC1`, the normalized cell count is reported as 93.1%.
`C=CCNc1nnc(Sc2ncccc2[N+](=O)[O-])s1` showed a normalized cell count of 45.3%.
Compound `COc1ccc(Cn2c(C)nnc2-c2cnn(C)c2N)cc1OC` has a normalized cell count of 72%.
In the case of `O=C(Nc1nnc(COc2ccc(Cl)cc2)s1)c1cccs1`, the normalized cell count is reported as 104%.
Work on `Cc1cccc(Oc2ccc(Cl)cc2N)c1` yielded a normalized cell count of 84.8%.
Work on `COC(=O)CC1NCCc2cc(OC)c(OC)cc21` (configuration not stated) yielded a normalized cell count of 152%.
In the case of `CC1(C)Cn2c(nnc2-c2cccc(O)c2)S1`, the normalized cell count is reported as 173%.
`CCOc1ccc2[nH]c3c(N4CCN(c5ccccn5)CC4)ncnc3c2c1` showed a normalized cell count of 111%.
`COc1cccc(-c2csc3nc[nH]c(=O)c23)c1` gave a normalized cell count of 108%.
`CCOCCn1c(SC)nc2c1c(=O)[nH]c(=O)n2C` showed a normalized cell count of 173%.
For `CC1=Nn2c(nnc2-c2ccccc2Cl)SC1`, the normalized cell count was 82.7%.
`Cc1ccc(Nc2nc(N3CCOCC3)nc(N3CCOCC3)n2)cc1` gave a normalized cell count of 83.5%.
Compound `COc1ccc(CCc2nc(C)ccc2O)cc1` has a normalized cell count of 211%.
Work on `C(=C\c1nc2ccccc2[nH]1)/c1ccccc1` yielded a normalized cell count of 165%.
`COCCCn1cnc2c(c1=O)c1nc3ccccc3nc1n2-c1ccccc1` showed a normalized cell count of 112%.
Compound `Cc1c(CCO)sc[n+]1CC(=O)OCCC12CC3CC(CC(C3)C1)C2` has a normalized cell count of 106%.
With `COc1ccc(C(c2sc3nc(C)nn3c2O)N2CCC(C(N)=O)CC2)cc1OC` (configuration not stated) the normalized cell count was 39.2%.
In the case of `Clc1ccc2c(N/N=C/c3ccc(Br)cc3)ccnc2c1`, the normalized cell count is reported as 98.1%.
With `O=C(C1CCC1)N1CCc2cc(S(=O)(=O)NCc3ccco3)ccc21` the normalized cell count was 56.7%.
For `COc1ccc(CSCC(=O)N/N=C/c2ccccc2O)cc1`, the normalized cell count was 54.2%.
Work on `COc1cccc(OCCNc2cc(Cl)ccc2[N+](=O)[O-])c1` yielded a normalized cell count of 78.3%.
With `Clc1ccc2c(N/N=C/c3cccc(Br)c3)ccnc2c1` the normalized cell count was 203%.
In the case of `CN1CCN(c2ccc(C(=O)c3ccccc3)cc2[N+](=O)[O-])CC1`, the normalized cell count is reported as 92%.
In the case of `CCc1cccc(CC)c1C(O)c1cccnc1` (configuration not stated), the normalized cell count is reported as 114%.
`O=C(NCCCN1CCCC1=O)c1ccc(Cl)c(NS(=O)(=O)c2ccc(F)cc2)c1` gave a normalized cell count of 162%.
In the case of `CCOC(=O)N1CCN(C(=O)CN(c2ccc3c(c2)OCO3)S(C)(=O)=O)CC1`, the normalized cell count is reported as 66.2%.
`COc1cc(NC(=O)COC(C)=O)cc(OC)c1OC` showed a normalized cell count of 77.9%.
`Cc1ccc(-c2nnn(CCC(=O)N3CCCCC3C)n2)cc1` (configuration not stated) showed a normalized cell count of 71.3%.
`O=C(CN1CCN(c2ccccc2)CC1)Nc1ccccc1C(F)(F)F` showed a normalized cell count of 42.5%.
Work on `CSc1nc(-c2ccc(Cl)cc2)nn1C(=O)c1ccco1` yielded a normalized cell count of 168%.
Work on `Cc1ccc2c(Cl)c(C)c(N3CCCC3)nc2n1` yielded a normalized cell count of 144%.
In the case of `CCSc1nc(N)c2c(C)c(C)sc2n1`, the normalized cell count is reported as 139%.
For `CCOCCCn1c(=S)[nH]c2ncccc2c1=O`, the normalized cell count was 79.3%.
For `CCCn1nnc(NC(=O)c2cc(Br)ccc2OC)n1`, the normalized cell count was 33.6%.
For `O=C(NCc1ccco1)c1cc([N+](=O)[O-])cc([N+](=O)[O-])c1`, the normalized cell count was 181%.
Work on `O=C(CCCOc1ccccc1)Nc1cccc([N+](=O)[O-])c1` yielded a normalized cell count of 108%.
With `CCOC(=O)CSc1nnc(CNC(=O)c2ccc(S(=O)(=O)N3CCCC3)cc2)n1C` the normalized cell count was 114%.
For `O=C(c1cccc(F)c1)n1nnc2ccccc21`, the normalized cell count was 42.6%.
In the case of `O=C(Nc1ccccc1)c1ccc(S(=O)(=O)N(CCO)CCO)cc1`, the normalized cell count is reported as 68.8%.
In the case of `Cn1cc([N+](=O)[O-])c(C(=O)N/N=C/c2ccc3c(c2)OCO3)n1`, the normalized cell count is reported as 49.9%.
For `Cc1ccc(NC(=O)C2CC(=O)n3c(nc4ccccc43)N2)cc1Cl` (configuration not stated), the normalized cell count was 96.8%.
With `COc1cccc(-n2c(SCC(N)=O)nnc2-c2ccncc2)c1` the normalized cell count was 103%.
For `CC(C)(CSc1ccccn1)NS(=O)(=O)c1ccc(Cl)cc1`, the normalized cell count was 168%.
`CC(=O)Nc1cc2c(cc1C(=O)c1ccc(C)cc1)OCCO2` gave a normalized cell count of 81.8%.
`O=C(O)c1cnc(-c2ccccc2)nc1Sc1ccccc1` gave a normalized cell count of 136%.
With `COc1cccc2c(=O)cc(C)n(CC(=O)Nc3cccc(C)c3)c12` the normalized cell count was 149%.
Compound `COc1cc2c(cc1OC)/C(=C/c1ccc(Br)cc1)C(=O)OC2` has a normalized cell count of 68.3%.
`CCN(CC)c1nc2n(c(=O)n1)CCO2` showed a normalized cell count of 138%.
Work on `CCOc1ccc(-c2cc(CCCC(=O)NCCc3ccccc3)no2)cc1` yielded a normalized cell count of 104%.
In the case of `Cc1ccc(OCCN(C)C)c([N+](=O)[O-])c1`, the normalized cell count is reported as 81.2%.
`Cc1nc(=O)c(-c2ccccc2)c(C)n1-c1ccc(O)cc1` showed a normalized cell count of 29.3%.
`COc1ccc(-n2ncc3c(NCc4ccc5c(c4)OCO5)ncnc32)cc1` gave a normalized cell count of 90.4%.
In the case of `Cc1ccc(-n2nnnc2SCC(N)=O)c(C)c1`, the normalized cell count is reported as 94.1%.
In the case of `Cc1cnc(NC(=O)Cc2cccs2)s1`, the normalized cell count is reported as 98.4%.
`COc1ccc(CN2C(=O)CCC2(C)C(=O)NC2CCCC2)c(OC)c1` (configuration not stated) showed a normalized cell count of 79.8%.
`Cc1cccc2c1NC(=O)/C2=C\C(=O)c1cccs1` showed a normalized cell count of 125%.
`O=C(c1ccco1)N1CCN(S(=O)(=O)c2cccs2)CC1` showed a normalized cell count of 135%.
In the case of `Cc1ccc(-c2nn(-c3ccccc3)cc2C2SCC(=O)N2Cc2ccccc2)o1` (configuration not stated), the normalized cell count is reported as 116%.
In the case of `COc1ccc(/C=N/NC(=O)CSc2ccccc2)cc1OC`, the normalized cell count is reported as 29.9%.
Work on `CCCOc1ccc(C(=O)C(CN2CCCC2)c2ccccc2)cc1` (configuration not stated) yielded a normalized cell count of 68.6%.
Compound `Cn1c(SCC(=O)O)nnc1C1CCCCC1` has a normalized cell count of 107%.
Compound `CC1=C(C#N)C(/C=N/OCc2ccc(Cl)cc2)CC(=O)N1` (configuration not stated) has a normalized cell count of 85.6%.
Work on `COC(=O)c1ccc(-n2c(C)nc(=O)c(-c3ccccc3)c2C)cc1` yielded a normalized cell count of 55.4%.
`c1ccc2[nH]c(-c3ccnc4ccccc34)nc2c1` showed a normalized cell count of 73.7%.
With `CC1=C(C(=O)Nc2ccccc2)C(c2ccncc2)C(C#N)=C(SCC(=O)NC(C)C)N1` (configuration not stated) the normalized cell count was 145%.
For `CCCC(=O)n1nc(-c2cccnc2)nc1N`, the normalized cell count was 61.2%.
